According to the supplement of paper PMC8728848:
Some of the results follow.

Experiments:
Assay in all cases: glycan array binding signal (z-score within array); higher = stronger binding
Conditions in all cases: glycan notation: IUPAC condensed, linker removed
[1] = target: Gal(b1-4)GlcNAc(b1-3)Gal(b1-4)GlcNAc(b1-3)Gal(b1-4)GlcNAc(b1-3)Gal(b1-4)GlcNAc(b1-2)Man(a1-3)[Gal(b1-4)GlcNAc(b1-3)Gal(b1-4)GlcNAc(b1-3)Gal(b1-4)GlcNAc(b1-3)Gal(b1-4)GlcNAc(b1-2)Man(a1-6)]Man(b1-4)GlcNAc(b1-4)[Fuc(a1-6)]GlcNAc
How it was run: (§1)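 The Consortium for Functional Glycomics database supplied 3228 glycan arrays, of which those lacking an available protein sequence were dropped. The binding signal, a within-array Z-score, was averaged across arrays of the same protein sequence and across linkers. Negative scores can be read as non-binding.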

[2] = target: Gal(b1-4)GlcNAc(b1-3)Gal(b1-4)GlcNAc(b1-3)Gal(b1-4)GlcNAc(b1-3)Gal(b1-4)GlcNAc(b1-2)[Gal(b1-4)GlcNAc(b1-3)Gal(b1-4)GlcNAc(b1-3)Gal(b1-4)GlcNAc(b1-3)Gal(b1-4)GlcNAc(b1-6)]Man(a1-6)[Gal(b1-4)GlcNAc(b1-3)Gal(b1-4)GlcNAc(b1-3)Gal(b1-4)GlcNAc(b1-3)Gal(b1-4)GlcNAc(b1-2)Man(a1-3)]Man(b1-4)GlcNAc(b1-4)[Fuc(a1-6)]GlcNAc
How it was run: as §1

[3] = target: Gal(b1-4)GlcNAc(b1-3)Gal(b1-4)GlcNAc(b1-3)Gal(b1-4)GlcNAc(b1-3)Gal(b1-4)GlcNAc(b1-3)Gal(b1-4)GlcNAc(b1-2)Man(a1-3)[Gal(b1-4)GlcNAc(b1-3)Gal(b1-4)GlcNAc(b1-3)Gal(b1-4)GlcNAc(b1-3)Gal(b1-4)GlcNAc(b1-3)Gal(b1-4)GlcNAc(b1-2)Man(a1-6)]Man(b1-4)GlcNAc(b1-4)GlcNAc
How it was run: as §1

[4] = target: Gal(b1-4)GlcNAc(b1-3)Gal(b1-4)GlcNAc(b1-3)Gal(b1-4)GlcNAc(b1-3)Gal(b1-4)GlcNAc(b1-3)Gal(b1-4)GlcNAc(b1-2)Man(a1-3)[Gal(b1-4)GlcNAc(b1-3)Gal(b1-4)GlcNAc(b1-3)Gal(b1-4)GlcNAc(b1-3)Gal(b1-4)GlcNAc(b1-3)Gal(b1-4)GlcNAc(b1-2)Man(a1-6)]Man(b1-4)GlcNAc(b1-4)[Fuc(a1-6)]GlcNAc
How it was run: as §1

[5] = target: Gal(b1-4)GlcNAc(b1-3)Gal(b1-4)GlcNAc(b1-3)Gal(b1-4)GlcNAc(b1-3)Gal(b1-4)GlcNAc(b1-3)Gal(b1-4)GlcNAc(b1-2)[Gal(b1-4)GlcNAc(b1-3)Gal(b1-4)GlcNAc(b1-3)Gal(b1-4)GlcNAc(b1-3)Gal(b1-4)GlcNAc(b1-3)Gal(b1-4)GlcNAc(b1-6)]Man(a1-6)[Gal(b1-4)GlcNAc(b1-3)Gal(b1-4)GlcNAc(b1-3)Gal(b1-4)GlcNAc(b1-3)Gal(b1-4)GlcNAc(b1-3)Gal(b1-4)GlcNAc(b1-2)Man(a1-3)]Man(b1-4)GlcNAc(b1-4)[Fuc(a1-6)]GlcNAc
How it was run: as §1

[6] = target: Gal(b1-4)GlcNAc(b1-3)Gal(b1-4)GlcNAc(b1-3)Gal(b1-4)GlcNAc(b1-3)Gal(b1-4)GlcNAc(b1-3)Gal(b1-4)GlcNAc(b1-3)Gal(b1-4)GlcNAc(b1-2)Man(a1-3)[Gal(b1-4)GlcNAc(b1-3)Gal(b1-4)GlcNAc(b1-3)Gal(b1-4)GlcNAc(b1-3)Gal(b1-4)GlcNAc(b1-3)Gal(b1-4)GlcNAc(b1-3)Gal(b1-4)GlcNAc(b1-2)Man(a1-6)]Man(b1-4)GlcNAc(b1-4)GlcNAc
How it was run: as §1

[7] = target: Gal(b1-4)GlcNAc(b1-3)Gal(b1-4)GlcNAc(b1-3)GalNAc
How it was run: as §1

[8] = target: Gal(b1-4)GlcNAc(b1-3)Gal(b1-4)GlcNAc(b1-3)[Gal(b1-4)GlcNAc(b1-3)Gal(b1-4)GlcNAc(b1-6)]GalNAc
How it was run: as §1

[9] = target: Gal(b1-4)GlcNAc(b1-3)Gal(b1-4)GlcNAc(b1-6)[Gal(b1-3)]GalNAc
How it was run: as §1

[10] = target: Gal(b1-4)GlcNAc(b1-3)Gal(b1-4)[Fuc(a1-3)]GlcNAc(b1-3)Gal(b1-4)[Fuc(a1-3)]GlcNAc
How it was run: as §1

[11] = target: Gal(b1-4)GlcNAc(b1-3)GalNAc
How it was run: as §1

[12] = target: Gal(b1-4)GlcNAc(b1-3)[Fuc(a1-3)GlcNAc(b1-6)]Gal(b1-4)Glc
How it was run: as §1

[13] = target: Gal(b1-4)GlcNAc(b1-3)[Gal(b1-4)GlcNAc(b1-6)]Gal(b1-4)GlcNAc
How it was run: as §1

[14] = target: Gal(b1-4)GlcNAc(b1-3)[GlcNAc(b1-6)]Gal(b1-4)GlcNAc
How it was run: as §1

[15] = target: Gal(b1-4)GlcNAc(b1-6)Gal(b1-4)GlcNAc
How it was run: as §1

[16] = target: Gal(b1-4)GlcNAc(b1-6)GalNAc
How it was run: as §1

[17] = target: Gal(b1-4)GlcNAc(b1-6)[Gal(b1-3)]GalNAc
How it was run: as §1

[18] = target: Gal(b1-4)GlcNAc(b1-6)[Gal(b1-4)GlcNAc(b1-3)]GalNAc
How it was run: as §1

Gal(b1-4)GlcNAc6P = target: Gal(b1-4)GlcNAc6P
How it was run: as §1

Gal(b1-6)Gal = target: Gal(b1-6)Gal
How it was run: as §1

Gal3S(b1-3)GalNAc = target: Gal3S(b1-3)GalNAc
How it was run: as §1

Gal3S(b1-3)GlcNAc = target: Gal3S(b1-3)GlcNAc
How it was run: as §1

[19] = target: Gal3S(b1-3)[Fuc(a1-4)]GlcNAc
How it was run: as §1

B1: Clec18A (Homo sapiens) (protein)
chain: PFHTCDLRIDGDCFMVSSEADTYYRARMKCQRKGGVLAQIKRQKVQDILAFYLGRLETTNEVIDSDFETRNFWIGLTYKTAKDSFRWATGEHQAFTSFAFGQPDNHGFGNCVELQASAAFNWNDQRCKTRNRYICQ
- glycan array binding signal (z-score) [1]: 1.66
- glycan array binding signal (z-score) [2]: 1.23
- glycan array binding signal (z-score) [3]: 0.263
- glycan array binding signal (z-score) [4]: -0.062
- glycan array binding signal (z-score) [5]: 1.58
- glycan array binding signal (z-score) [6]: 2.08
- glycan array binding signal (z-score) [7]: -0.588
- glycan array binding signal (z-score) [8]: -0.53
- glycan array binding signal (z-score) [9]: 1.81
- glycan array binding signal (z-score) [10]: 1.02
- glycan array binding signal (z-score) [11]: 1.48
- glycan array binding signal (z-score) [12]: -0.131
- glycan array binding signal (z-score) [13]: 0.596
- glycan array binding signal (z-score) [14]: -0.51
- glycan array binding signal (z-score) [15]: -0.214
- glycan array binding signal (z-score) [16]: 0.267
- glycan array binding signal (z-score) [17]: -0.636
- glycan array binding signal (z-score) [18]: 1.8
- glycan array binding signal (z-score) (Gal(b1-4)GlcNAc6P): 0.093
- glycan array binding signal (z-score) (Gal(b1-6)Gal): 3
- glycan array binding signal (z-score) (Gal3S(b1-3)GalNAc): -0.553
- glycan array binding signal (z-score) (Gal3S(b1-3)GlcNAc): -0.638
- glycan array binding signal (z-score) [19]: -0.41
